Reference: patent EP0467433 (dated 1992)

Test: general procedure: solution-phase peptide synthesis; azide coupling (isoamyl nitrite/HCl); ONp active esters

Substance: Boc-Met02-Glu(OtBu)-His-Phe-D-Lys(Boc)-Phe-OC10H21
- step yield: 91.7%
